Measured data: PubChem BioAssay AID1259254 (NCATS, 2017)
Aim: 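Finding genes that stop cells copying their DNA twice in one cycle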 (primary screen). Cell system: human HCT116 colorectal cancer cells. Knock-down reagent: single siRNA against human genes. Duration: 3 days. Read-out: 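Nuclei stained with Hoechst and imaged; cell-cycle phase assigned by DNA content; G2 share scaled per plate, non-targeting siRNA 0%, GMNN siRNA 100%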. Direction: G2 robust z-score and G2 cells, % of GMNN control: higher = more G2 cells, more excess DNA replication. Hit rule: 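Active siRNAs have a G2 robust z of 5 or more median absolute deviations over the median, which in these data means about 38% or higher of GMNN control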.
Shown is a random part of about 59,000 deposited reagents. About 1,550 of all reagents (2.6%) were called active. 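G2 share is only a proxy for re-replication; each gene was hit by three separate siRNAs, and active genes were retested.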 A number with no mark means an inactive call. The numbers tell different reagents against one gene apart. Further read-outs or replicates are left out here. Not given: the amount of reagent.

gene knocked down | reagent no. | G2 robust z-score | G2 cells, % of GMNN control
WDR74 | 1 | 3.58 | 28.2
WDR74 | 2 | 0.162 | 4.1
WDR74 | 3 | 1.63 | 14.5
TUBB3 | 1 | 3.4 | 26.9
TUBB3 | 2 | 1.75 | 15.3
TUBB3 | 3 | -0.698 | -1.94
BMP1 | 1 | -0.44 | -0.126
BMP1 | 2 | -0.68 | -1.82
BMP1 | 3 | 0.0237 | 3.13
PRMT3 | 1 | 0.215 | 4.48
PRMT3 | 2 | -0.886 | -3.27
PRMT3 | 3 | -0.939 | -3.64
PRDM9 | 1 | 0.288 | 5
PRDM9 | 2 | 0.733 | 8.13
PRDM9 | 3 | 3.11 | 24.9
TBC1D22A | 1 | -1.05 | -4.41
TBC1D22A | 2 | 0.348 | 5.42
TBC1D22A | 3 | -0.634 | -1.49
BET1L | 1 | -0.953 | -3.74
BET1L | 2 | -0.0422 | 2.67
BET1L | 3 | -0.916 | -3.48
LEKR1 | 1 | -0.357 | 0.459
LEKR1 | 2 | 0.808 | 8.65
LEKR1 | 3 | -0.87 | -3.15
SGCD | 1 | 2.6 | 21.2
SGCD | 2 | -0.385 | 0.256
SGCD | 3 | -0.378 | 0.306
RPL31 | 1 | 5.06 (active) | 38.5
RPL31 | 2 | 4.53 | 34.9
RPL31 | 3 | 2.55 | 20.9
HCCAT5 | 1 | 0.535 | 6.73
HCCAT5 | 2 | -0.804 | -2.69
HCCAT5 | 3 | 0.529 | 6.69

Targets above whose gene name begins with W or w (3):
gene knocked down | reagent no. | G2 robust z-score | G2 cells, % of GMNN control
WDR74 | 1 | 3.58 | 28.2
WDR74 | 2 | 0.162 | 4.1
WDR74 | 3 | 1.63 | 14.5

Further entries:
gene knocked down | reagent no. | G2 robust z-score | G2 cells, % of GMNN control
MAGEB18 | 1 | -0.0129 | 2.88
MAGEB18 | 2 | -0.371 | 0.355
MAGEB18 | 3 | -0.00573 | 2.93
ANKDD1B | 1 | 1.22 | 11.6
ANKDD1B | 2 | 0.815 | 8.7
ANKDD1B | 3 | 0.285 | 4.97
ZC3H7B | 1 | 2.78 | 22.5
ZC3H7B | 2 | 0.0312 | 3.19
ZC3H7B | 3 | 6.25 (active) | 47
EBP | 1 | -0.665 | -1.71
EBP | 2 | 1.62 | 14.3
EBP | 3 | 0.0335 | 3.2
CAPN10 | 1 | 3.88 | 30.3
CAPN10 | 2 | 1.29 | 12.1
CAPN10 | 3 | -0.38 | 0.293
LINC00598 | 1 | -0.959 | -3.78
LINC00598 | 2 | 0.755 | 8.28
LINC00598 | 3 | -0.176 | 1.73
DISP1 | 1 | -0.473 | -0.363
DISP1 | 2 | -0.0487 | 2.62
DISP1 | 3 | -0.257 | 1.16
ABCB1 | 1 | -0.614 | -1.35
ABCB1 | 2 | -0.62 | -1.39
ABCB1 | 3 | -0.937 | -3.62
PROSER1 | 1 | -0.0321 | 2.74
PROSER1 | 2 | 2.37 | 19.7
PROSER1 | 3 | -0.224 | 1.39
IL12B | 1 | 1.18 | 11.3
IL12B | 2 | -1.27 | -5.94
IL12B | 3 | -0.734 | -2.19
PPIAP59 | 1 | 0.397 | 5.76
PPIAP59 | 2 | 0.0437 | 3.27
PPIAP59 | 3 | -0.303 | 0.838
EGFL7 | 1 | 0.597 | 7.17
EGFL7 | 2 | -0.507 | -0.601
EGFL7 | 3 | -1.07 | -4.58
